According to paper PMC8169937:
These are yes or no findings as the source states them, for the method shown. Binding seen in cells or lysates may run through a third protein. A yes stands for co-enrichment or nearness to the bait. Other partners may have been found.

Sequences of proteins named here, by UniProt entry; tags and fusion partners are left off. A change or cut given only in a name is not applied to a line headed by its entry.
UniProt Q562E2: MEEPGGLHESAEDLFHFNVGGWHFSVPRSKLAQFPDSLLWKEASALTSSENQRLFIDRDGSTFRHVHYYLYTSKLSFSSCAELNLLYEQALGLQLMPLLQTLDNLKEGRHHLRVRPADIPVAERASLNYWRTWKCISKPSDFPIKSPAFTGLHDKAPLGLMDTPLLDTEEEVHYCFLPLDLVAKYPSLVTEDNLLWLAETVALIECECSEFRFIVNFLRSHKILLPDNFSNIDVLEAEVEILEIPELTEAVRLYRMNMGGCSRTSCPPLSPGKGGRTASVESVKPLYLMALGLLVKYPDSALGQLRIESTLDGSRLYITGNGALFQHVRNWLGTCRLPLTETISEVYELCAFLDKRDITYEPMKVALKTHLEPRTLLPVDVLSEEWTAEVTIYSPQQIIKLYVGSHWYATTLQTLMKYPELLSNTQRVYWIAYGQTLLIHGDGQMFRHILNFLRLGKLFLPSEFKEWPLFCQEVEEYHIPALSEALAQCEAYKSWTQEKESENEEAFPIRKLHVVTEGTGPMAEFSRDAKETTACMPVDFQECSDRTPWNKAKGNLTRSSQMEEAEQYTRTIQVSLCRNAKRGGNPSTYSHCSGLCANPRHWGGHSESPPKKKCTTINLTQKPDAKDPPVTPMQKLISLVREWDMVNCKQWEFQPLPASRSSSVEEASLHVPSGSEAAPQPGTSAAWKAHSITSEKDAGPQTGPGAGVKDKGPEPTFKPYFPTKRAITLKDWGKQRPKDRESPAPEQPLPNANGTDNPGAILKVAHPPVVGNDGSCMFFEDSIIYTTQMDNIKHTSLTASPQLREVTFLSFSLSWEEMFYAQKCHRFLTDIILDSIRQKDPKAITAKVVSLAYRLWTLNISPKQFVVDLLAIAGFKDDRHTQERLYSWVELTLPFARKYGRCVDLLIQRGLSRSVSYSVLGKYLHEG
UniProt O09106: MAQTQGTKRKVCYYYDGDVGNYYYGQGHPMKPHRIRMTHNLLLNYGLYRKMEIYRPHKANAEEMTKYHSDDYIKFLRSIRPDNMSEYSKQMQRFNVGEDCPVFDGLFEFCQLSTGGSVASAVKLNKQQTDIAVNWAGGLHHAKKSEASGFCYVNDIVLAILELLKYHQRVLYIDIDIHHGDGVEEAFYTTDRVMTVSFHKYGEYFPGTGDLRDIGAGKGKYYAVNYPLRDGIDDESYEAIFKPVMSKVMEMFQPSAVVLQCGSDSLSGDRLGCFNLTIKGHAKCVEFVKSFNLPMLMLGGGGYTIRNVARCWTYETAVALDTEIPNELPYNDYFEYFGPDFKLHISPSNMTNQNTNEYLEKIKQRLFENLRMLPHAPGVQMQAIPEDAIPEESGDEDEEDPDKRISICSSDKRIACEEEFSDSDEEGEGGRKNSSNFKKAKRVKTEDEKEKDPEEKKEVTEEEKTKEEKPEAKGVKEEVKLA
UniProt P70288: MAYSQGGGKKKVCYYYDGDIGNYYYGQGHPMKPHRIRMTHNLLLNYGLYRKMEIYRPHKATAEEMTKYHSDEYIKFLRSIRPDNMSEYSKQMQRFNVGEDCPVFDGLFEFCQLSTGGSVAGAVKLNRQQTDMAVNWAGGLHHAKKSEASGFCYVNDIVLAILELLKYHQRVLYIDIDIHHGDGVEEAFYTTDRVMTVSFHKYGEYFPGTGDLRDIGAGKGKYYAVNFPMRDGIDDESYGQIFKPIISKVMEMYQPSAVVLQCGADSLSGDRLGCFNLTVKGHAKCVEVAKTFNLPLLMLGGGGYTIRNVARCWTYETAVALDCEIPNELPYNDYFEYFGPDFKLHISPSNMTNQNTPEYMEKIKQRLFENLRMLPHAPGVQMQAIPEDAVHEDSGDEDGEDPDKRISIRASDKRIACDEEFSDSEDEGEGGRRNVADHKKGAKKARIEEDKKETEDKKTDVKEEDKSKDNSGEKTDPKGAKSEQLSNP

T1: ZFP541 (mouse (endogenous in testis)) (UniProt Q0GGX2)
T1 sequence: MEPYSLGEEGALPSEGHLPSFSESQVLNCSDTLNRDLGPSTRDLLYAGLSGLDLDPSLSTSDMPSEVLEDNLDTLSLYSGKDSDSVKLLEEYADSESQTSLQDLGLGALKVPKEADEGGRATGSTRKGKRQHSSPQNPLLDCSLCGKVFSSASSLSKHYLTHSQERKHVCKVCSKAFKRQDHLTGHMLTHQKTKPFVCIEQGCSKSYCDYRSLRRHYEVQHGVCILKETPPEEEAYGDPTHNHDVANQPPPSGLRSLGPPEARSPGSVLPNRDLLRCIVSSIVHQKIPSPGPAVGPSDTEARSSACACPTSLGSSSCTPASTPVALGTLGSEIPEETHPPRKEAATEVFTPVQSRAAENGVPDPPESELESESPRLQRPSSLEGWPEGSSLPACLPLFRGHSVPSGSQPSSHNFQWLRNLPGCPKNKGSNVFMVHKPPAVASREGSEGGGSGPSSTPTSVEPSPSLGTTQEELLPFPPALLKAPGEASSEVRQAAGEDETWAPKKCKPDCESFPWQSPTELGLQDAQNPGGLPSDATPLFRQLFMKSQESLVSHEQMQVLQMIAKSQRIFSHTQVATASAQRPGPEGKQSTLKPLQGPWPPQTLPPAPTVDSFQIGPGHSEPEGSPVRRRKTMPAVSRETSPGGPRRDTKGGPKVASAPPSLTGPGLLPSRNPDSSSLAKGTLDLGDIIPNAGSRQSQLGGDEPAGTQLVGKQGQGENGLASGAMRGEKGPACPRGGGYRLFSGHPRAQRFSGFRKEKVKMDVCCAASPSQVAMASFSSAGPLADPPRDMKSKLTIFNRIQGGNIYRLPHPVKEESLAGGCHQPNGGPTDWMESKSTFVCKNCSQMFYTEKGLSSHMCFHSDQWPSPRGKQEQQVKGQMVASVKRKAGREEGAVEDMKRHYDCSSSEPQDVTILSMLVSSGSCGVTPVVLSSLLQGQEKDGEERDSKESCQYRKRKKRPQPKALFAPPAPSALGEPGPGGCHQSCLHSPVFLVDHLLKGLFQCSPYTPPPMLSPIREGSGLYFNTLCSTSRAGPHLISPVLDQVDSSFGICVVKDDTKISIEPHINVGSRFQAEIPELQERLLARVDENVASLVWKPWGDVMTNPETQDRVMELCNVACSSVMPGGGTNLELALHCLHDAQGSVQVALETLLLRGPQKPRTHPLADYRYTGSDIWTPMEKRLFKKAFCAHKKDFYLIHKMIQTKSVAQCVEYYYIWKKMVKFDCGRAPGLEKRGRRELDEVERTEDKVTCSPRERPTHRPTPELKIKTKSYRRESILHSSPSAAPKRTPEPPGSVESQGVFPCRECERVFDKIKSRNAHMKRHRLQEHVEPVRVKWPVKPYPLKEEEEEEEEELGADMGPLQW


Experiments:
[1] = molecular target: KCTD19 (mouse (endogenous in testis)) (UniProt Q562E2); assay: affinity purification with mass spectrometry; endogenous KCTD19 immunoprecipitated with anti-KCTD19-N from mouse testis extracts; in-gel digestion, LC-MS/MS; proteins found in the control IgG-IP excluded
[2] = molecular target: T1, ZFP541 (mouse (endogenous in testis)); assay: affinity purification with mass spectrometry; endogenous ZFP541 immunoprecipitated with rabbit anti-ZFP541 crosslinked to protein A-Dynabeads from the chromatin-bound fraction of WT mouse testis extracts; LC-MS/MS; proteins found in the control IgG-IP excluded
[3] = molecular target: T1, ZFP541 (mouse (endogenous in testis)); assay: affinity purification with mass spectrometry; ZFP541-IP from the chromatin-unbound fraction of mouse testis extracts; LC-MS/MS; proteins found in the control IgG-IP excluded
[4] = molecular target: T1, ZFP541 (mouse (endogenous in testis)); assay: affinity purification with mass spectrometry; ZFP541-IP from the MNase-released nucleosome fraction of mouse testis extracts; LC-MS/MS; proteins found in the control IgG-IP excluded

binding [1]	binding [2]	binding [3]	binding [4]	Molecule
binds				HDAC1 (from UniProt O09106 1-482) (enzyme)
binds	binds	binds	binds	HDAC2 (from UniProt P70288 1-488) (enzyme)
	binds	binds	binds	KCTD19 (from UniProt Q562E2-2)
binds				MIDEAS (protein, UniProt E9Q2I4 1-1089) MNLQAQSKAQSKRKRCPFGDQEPAAKEQPPPLQSPPQSLRAKEEQYGAHEGPTGVASTTQPVELSPPNNLALLNSVVYGSERTTAAMLSQQAQVSSVKWPSSVMAPGRGLERGGGGGISDSGWQQQPGQPPPHSTWNHLPLYGGPKGSPHPGVGVPPYYNHPEALKGNKPGGPQLDHYGNAVQPMVPQKVQLEVGRPQAPLNSFHAAKKPPNQTLPLQPFQLAFGHQVNRQVFRQGPQPSNPTASFPPQKQQQQQQPAALPQMQLFENYYPMHQLPSQQHQDFGLAPGGPLGQTHLAHRSMAPYPFSHNPDMNPELRKALLQDPASQPVLPQPQMAFPRRSRRLSKEGILPSNSLDGAGTQPGQEPASNLFLHHWSLPQPPPGTLGQPHSEALGFPLELRESQMLADGDRLAPNGREREPPAMGNEEVMRAGGLGDCGQMIRSGVIQSTKRRRRVSQEANLLTLAQKAVELASMQDANGSEEKRKSVLATTSRCGVEFSEPALAAKRAREESGMVPLIIPVSVPVRTVGPTEVAQVGGADEDGTGLEQYPTEHKPSVIVTRRRSTRVPGTDAAAQAEDLNVKLEGEPSMRKPKQRPRPEPLIIPTKAGTFIAPPVYSNITPYQSHLRSPVRLADHPSERSFEPPPYTPPPILSPVREGSGLYFNAIISTSNIPAPPPITPKSAHRTLLRSNSSEVTPPVLSVMGEATPVSIEPRINVGTRFQAEIPMMRDRALAAFDPHKADLVWQPWEHLESSWEKQRQVDDLLTAACSSIFPGAGTNQELALHYLHESRGDILEALNKLLLRKPLRPHNHPLATYHYTGSDQWKTAERKLFNKGIAIYKKDFFLVQKLIQTKTVAQCVEFYYTYKKQVKIGRNGTLTFGDLDIGDEKSGQEEVEVDVKTSQKFPRVPPPRRESPSEERLEPKREVTEPRKEGEEEVPDTQEKGEQEEGRERCRRAAAVKATQTLQANEAANDVLILRSHEPNAPGSAGIQTSEKPREGPGKSRRALPFTEKKKKAEAFNKTQNQENTFPCKKCGRVFYKVKSRSAHMKSHAEQEKKAAALRLKEKEAAAAAAHQQALREESGEGEKG
binds				Transcription regulatory factor 1 (TRERF1) (protein, UniProt Q8BXJ2 1-1205) MGDQQLYKTNHVGHGGENLFYQQPPLGVHSGLGHSYGNTISGAGMDAPQASPISPHFPQDTRDGLGLPIGSKNLGQMDTSRQGGWGSHAGPGNHVQLRSNLANSNMMWGTPTQVEPADGYQYTYSQASEIRTQKLTSGVLHKLDSFTQVFANQNLRIQVNNMAQVLHTQSAVMDGASDSALRQLLSQKPVEPSASAIASRYQQVPQQPHPGFTGGLPKPALPVGQHAPQGHLYYDYQQPLAQMSMQGGQPLQAPQVLSGHMQQLQQHQYYPQPPPQQQQAGLQRISVQEMQQQQQPQQIRPSPPQQQQQLQLQQRQSSLQIPQYYQPQPMMQHLQEQQQPSMHLQPPSYHRDPHQYTPEQAHAVQLIQLGSMPQYYYQEPQQAYSHPLYPQSHLSQHQQREDGQLKTYSSDRQTPAMLSSHGDMGTSDTGVADPASSEMTRVTSTLPHQPLLSPSGIHLNNMGSQHQQPPSPSAMWPQMHLPDGRAQSGSPESSSGQTKGVFGEQFDAKNKLTCSICLKEFKSLPALNGHMRSHGGMRASPSLKQEEGEKAPPPQPQPQPQPQQPLPPPPPPPPPPQLPPEAERLTPMVMPVSVPVKLIPPKPSSQGFTNSVAATPAARDKPASSMSDDEMPVLEIPRKHPPIAAKVEEPLKNLPEKKKFRHRPEPLFIPPPPSSYTPNPTSYSGATLYQSQLRSPRILGDHLLLDPAHELPPYTPPPMLSPVRQGSGLFSNVLISGHGPGVHPQLPLTPLTPTPRVLLCRSSSIDGSNVTVTPGPGEQTVDVEPRINIGLRFQAEIPELQDVSALAQDTHRATLVWKPWPELENQALQQQVENLLNLCCSSALPGGGTNSEFALHSLFEAKGDVMATLEMLLLRKPVRLKCHPLANYHYAGSDKWTSLERKLFNKALATYSKDFIFVQKMVKSKTVAQCVEYYYTWKKIMRLGRKHRTRLAEIIDDCMTSEEEEEAEEEEEDPEEDRKSIKEEESEVAKSPEPPPAPALAPTEGPPMQAVGQQPSGNFICEMPNCGAVFSSRQALNGHARIHGGTNQVAKTRGAIPSGKQKPGGTQSGYCSVKSSPSHSTTSGETDPTTIFPCKECGKVFFKIKSRNAHMKTHRQQEEQQRQKAQKAAFAAEMAATIERTTGPVGAPELLPLDQLSLMKPVKDVDILDDDVVQQLGVMDEAEVVGTDLLLDDQDSVLLQGDTEL
binds				ZFP541 (protein, UniProt Q0GGX2 1-1363) MEPYSLGEEGALPSEGHLPSFSESQVLNCSDTLNRDLGPSTRDLLYAGLSGLDLDPSLSTSDMPSEVLEDNLDTLSLYSGKDSDSVKLLEEYADSESQTSLQDLGLGALKVPKEADEGGRATGSTRKGKRQHSSPQNPLLDCSLCGKVFSSASSLSKHYLTHSQERKHVCKVCSKAFKRQDHLTGHMLTHQKTKPFVCIEQGCSKSYCDYRSLRRHYEVQHGVCILKETPPEEEAYGDPTHNHDVANQPPPSGLRSLGPPEARSPGSVLPNRDLLRCIVSSIVHQKIPSPGPAVGPSDTEARSSACACPTSLGSSSCTPASTPVALGTLGSEIPEETHPPRKEAATEVFTPVQSRAAENGVPDPPESELESESPRLQRPSSLEGWPEGSSLPACLPLFRGHSVPSGSQPSSHNFQWLRNLPGCPKNKGSNVFMVHKPPAVASREGSEGGGSGPSSTPTSVEPSPSLGTTQEELLPFPPALLKAPGEASSEVRQAAGEDETWAPKKCKPDCESFPWQSPTELGLQDAQNPGGLPSDATPLFRQLFMKSQESLVSHEQMQVLQMIAKSQRIFSHTQVATASAQRPGPEGKQSTLKPLQGPWPPQTLPPAPTVDSFQIGPGHSEPEGSPVRRRKTMPAVSRETSPGGPRRDTKGGPKVASAPPSLTGPGLLPSRNPDSSSLAKGTLDLGDIIPNAGSRQSQLGGDEPAGTQLVGKQGQGENGLASGAMRGEKGPACPRGGGYRLFSGHPRAQRFSGFRKEKVKMDVCCAASPSQVAMASFSSAGPLADPPRDMKSKLTIFNRIQGGNIYRLPHPVKEESLAGGCHQPNGGPTDWMESKSTFVCKNCSQMFYTEKGLSSHMCFHSDQWPSPRGKQEQQVKGQMVASVKRKAGREEGAVEDMKRHYDCSSSEPQDVTILSMLVSSGSCGVTPVVLSSLLQGQEKDGEERDSKESCQYRKRKKRPQPKALFAPPAPSALGEPGPGGCHQSCLHSPVFLVDHLLKGLFQCSPYTPPPMLSPIREGSGLYFNTLCSTSRAGPHLISPVLDQVDSSFGICVVKDDTKISIEPHINVGSRFQAEIPELQERLLARVDENVASLVWKPWGDVMTNPETQDRVMELCNVACSSVMPGGGTNLELALHCLHDAQGSVQVALETLLLRGPQKPRTHPLADYRYTGSDIWTPMEKRLFKKAFCAHKKDFYLIHKMIQTKSVAQCVEYYYIWKKMVKFDCGRAPGLEKRGRRELDEVERTEDKVTCSPRERPTHRPTPELKIKTKSYRRESILHSSPSAAPKRTPEPPGSVESQGVFPCRECERVFDKIKSRNAHMKRHRLQEHVEPVRVKWPVKPYPLKEEEEEEEEELGADMGPLQW
binds	binds	binds	binds	terminal deoxynucleotidyltransferase-interacting factor 1 (TDIF1) (protein, UniProt Q99LB0 1-328) MGATGDTEQPRGPGGAERGGLELGDAGAAGQPVLTNPWNIMIKHRQVQRRGRRSQMTTSFTDPAISMDLLRAVLQPSINEEIQGVFNKYMKFFQKAALNVRDNVGEEVDAEQLIQEACRSCLEQAKLLFSDGEKVIPRLAHELPGIKRGRQAEEESHRGSPIPKKRKGRPPGHVLSNDRAAAGMVWKQKSCEPIRREGPKWDPARLNESTTFVLGSRANKALGMGGTRGRIYIKHPHLFKYAADPQDKHWLAEQHHMRATGGKMAYLLIEEDIRDLAASDDYRGCLDLKLEELKSFVLPSWMVEKMRKYMETLRTENEHRAAEAPPQT
